Reference: patent US4460576A, “Peptide and hormone agent containing the same as effective ingredient” (Kaken Pharmaceutical Co., Ltd., priority 1982, dated 1984)
At least one peptide structure holds a part that was inferred or is arguable (an end, a ring closure or a residue). Positions of bridges follow the written chain, without caps; N, C: chain ends. Residues, ends and D or L forms follow the SMILES beside them.

Test: Comparison of physical properties and pharmacological activity of [Glu^16 ]--GH--RH with GH--RH from salmon and [Gln^16 ]--GH--RH

In the case of `CSCC[C@@H]1NC(=O)[C@@H](NC(=O)[C@H](CCCNC(=N)N)NC(=O)[C@H](CCSC)NC(=O)[C@@H](NC(=O)[C@@H](N)CC(=O)O)[C@@H](C)O)CSSC[C@@H](C(=O)N[C@@H](Cc2c[nH]c3ccccc23)C(=O)N[C@@H](CCC(=O)O)C(=O)N[C@H](C(=O)O)C(C)C)NC(=O)[C@@H]2CCCN2C(=O)[C@H](CCCNC(=N)N)NC(=O)[C@H](Cc2ccc(O)cc2)NC(=O)[C@H](C(C)C)NC(=O)[C@H](CCCNC(=N)N)NC(=O)CNC(=O)[C@H](C(C)C)NC1=O` [[Glu^16]--GH--RH] (H-DTMRCMVGRVYRPCWEV-OH; disulfide 5-14), the “physical properties and pharmacological activity compared with GH--RH obtained from salmon and [Gln^16 ]--GH--RH” value was “extremely similar physical properties and pharmacological activity”.
